Test results from patent US5696115A, “Method for treating nicotine withdrawal” (Eli Lilly and Company, priority 1995, dated 1997).

Tested on: 5-HT1C receptor
Details: anhydrous Form I compound

Cc1cc2c(s1)Nc1ccccc1N=C2N1CCN(C)CC1 [anhydrous Form I, 2-methyl-4-(4-methyl-1-piperazinyl)-10H-thieno[2,3-b][1,5]-benzodiazepine]
activity at 5-HT1C receptor: active
